Test results published in publication PMC8983672.
No constants are given. Whether binding was seen depends on the method and setting. In cells and extracts the contact can be indirect. Some entries that bind do so weakly or less than the wild type.

The chains behind the UniProt entries cited, without tags or fusion partners.
UniProt P47936: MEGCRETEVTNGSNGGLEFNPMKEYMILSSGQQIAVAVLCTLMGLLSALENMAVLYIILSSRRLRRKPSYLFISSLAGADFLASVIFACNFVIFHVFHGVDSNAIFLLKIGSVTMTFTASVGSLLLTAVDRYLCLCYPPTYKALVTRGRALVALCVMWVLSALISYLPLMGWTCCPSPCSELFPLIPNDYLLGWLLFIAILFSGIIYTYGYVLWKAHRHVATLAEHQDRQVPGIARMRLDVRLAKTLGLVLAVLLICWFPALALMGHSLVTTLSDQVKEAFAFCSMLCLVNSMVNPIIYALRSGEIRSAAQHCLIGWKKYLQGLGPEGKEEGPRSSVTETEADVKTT
UniProt P52332: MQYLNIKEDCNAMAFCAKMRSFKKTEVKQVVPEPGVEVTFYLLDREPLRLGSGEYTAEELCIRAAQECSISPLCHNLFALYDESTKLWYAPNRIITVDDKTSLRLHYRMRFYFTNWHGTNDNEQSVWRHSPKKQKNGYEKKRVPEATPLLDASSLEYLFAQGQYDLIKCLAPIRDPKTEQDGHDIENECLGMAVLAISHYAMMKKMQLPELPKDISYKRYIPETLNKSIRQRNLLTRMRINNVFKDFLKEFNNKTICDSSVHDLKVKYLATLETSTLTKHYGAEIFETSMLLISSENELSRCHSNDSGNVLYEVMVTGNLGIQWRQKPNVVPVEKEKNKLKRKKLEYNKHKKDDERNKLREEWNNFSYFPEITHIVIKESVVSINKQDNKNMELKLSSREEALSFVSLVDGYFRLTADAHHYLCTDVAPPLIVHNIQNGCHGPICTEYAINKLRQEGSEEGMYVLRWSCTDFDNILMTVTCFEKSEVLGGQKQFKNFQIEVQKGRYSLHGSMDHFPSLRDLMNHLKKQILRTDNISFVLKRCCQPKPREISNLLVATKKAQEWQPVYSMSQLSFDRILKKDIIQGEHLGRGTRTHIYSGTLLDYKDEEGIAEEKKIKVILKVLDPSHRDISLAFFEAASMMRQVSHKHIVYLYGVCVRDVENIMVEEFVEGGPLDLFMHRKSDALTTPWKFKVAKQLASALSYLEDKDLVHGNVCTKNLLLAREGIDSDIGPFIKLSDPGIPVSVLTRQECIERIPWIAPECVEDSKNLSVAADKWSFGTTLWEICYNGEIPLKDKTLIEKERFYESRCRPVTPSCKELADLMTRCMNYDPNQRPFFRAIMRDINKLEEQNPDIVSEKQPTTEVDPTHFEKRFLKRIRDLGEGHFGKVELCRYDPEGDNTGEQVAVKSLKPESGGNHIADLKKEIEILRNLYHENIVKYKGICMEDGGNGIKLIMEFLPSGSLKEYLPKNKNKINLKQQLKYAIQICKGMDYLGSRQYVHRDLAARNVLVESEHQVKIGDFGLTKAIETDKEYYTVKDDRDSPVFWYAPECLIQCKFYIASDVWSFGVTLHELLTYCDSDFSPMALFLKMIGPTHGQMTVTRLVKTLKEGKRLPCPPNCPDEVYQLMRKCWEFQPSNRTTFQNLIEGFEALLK

Target: FLAG-tagged CNR2 (cannabinoid receptor 2) from Cnr2-2×Flag-IRES-Egfp^flox/flox knock-in mice (mouse) (UniProt P47936)
Experiment: co-IP; lysate of Cnr2-2×Flag-IRES-Egfp^flox/flox CD8+ T cells treated with THC or DMSO for 24 h; precipitated with Flag antibody, blotted with anti-JAK1 and anti-Flag

binding: binds
Substance: JAK1 (from UniProt P52332 1-1153) (enzyme)
